{"source": "patent US20160029683A1", "about": "“LOW CALORIE INFANT FORMULA CONTAINING BETA-HYDROXY-BETA-METHYLBUTYRIC ACID” (ABBOTT LABORATORIES, priority 2013, published 2016)", "assay_type_in_all_cases": "in vivo, neonatal pigs", "key": {"[1]": {"test": "Plasma concentrations of alpha-keto acids of branched chain amino acids in HMB-infused piglets", "settings": "infusion of 20, 100 or 400 μmol·kg^−1·hour^−1 HMB", "procedure": "Overnight fasted neonatal pigs (5-7 days old) were infused with HMB with 0, 20, 100, or 400 μmol·kg^−1·hr^−1 HMB. Blood plasma concentrations of the following circulating substrates were measured. HMB was measured using gas chromatography per the method set forth in: Nissen, Steven (1990). Analysis of β-Hydroxy-β-methyl Butyrate in Plasma by Gas […] Chromatography and Mass Spectrometry Analytical Biochemistry 188, 17-19. Alpha-keto acids of branched chain amino acids (i.e., a-ketoisocaproic acid (KIC, the α-keto acid of leucine), α-ketoisovalerate (KIV, the α-keto acid of valine) and α-ketomethylvalerate (KMV, the α-keto acid of isoleucine)) were measured by high pressure liquid chromatography using the method set forth in: Nissen, S. L. (1982). Measurement of branched chain amino acids and branched chain alpha-ketoacids in plasma by high performance liquid chromatography. J Chromatog 232, 170-175."}, "[2]": {"test": "Plasma amino acid concentrations (leucine, BCAA, EAA, NEAA) in HMB-infused piglets", "settings": "infusion of 20, 100 or 400 μmol·kg^−1·hour^−1 HMB for one hour", "procedure": "Overnight fasted neonatal pigs (5-7 days old) were infused with HMB with 0, 20, 100, or 400 μmol·kg^−1·hr^−1 HMB. Blood plasma concentrations of the following circulating substrates were measured. HMB was measured using gas chromatography per the method set forth in: Nissen, Steven (1990). Analysis of β-Hydroxy-β-methyl Butyrate in Plasma by Gas […] Chromatography and Mass Spectrometry Analytical Biochemistry 188, 17-19. Amino acids including leucine, other branched-chain amino acids (BCAA), essential amino acids (EAA) and nonessential amino acids (NEAA) were determined using high pressure liquid chromatography using the method set forth in: Davis TA(1993). Enhanced response of muscle protein synthesis and plasma insulin to food intake in suckled rats. Am J Physiol Regul Integr Comp Physiol 265:R334-R340."}, "[3]": {"test": "Plasma glucose concentrations in HMB-infused piglets", "procedure": "Overnight fasted neonatal pigs (5-7 days old) were infused with HMB with 0, 20, 100, or 400 μmol·kg^−1·hr^−1 HMB. Blood plasma concentrations of the following circulating substrates were measured. HMB was measured using gas chromatography per the method set forth in: Nissen, Steven (1990). Analysis of β-Hydroxy-β-methyl Butyrate in Plasma by Gas […] Chromatography and Mass Spectrometry Analytical Biochemistry 188, 17-19."}}}
{"smiles": "CC(C)(O)CC(=O)O", "note": "[HMB, beta-hydroxy-beta-methylbutyric acid]", "values": [{"measurement": "circulating concentration of KIC", "setting": "[1]", "result": "no impact"}, {"measurement": "circulating concentration of KIV", "setting": "[1]", "result": "no impact"}, {"measurement": "circulating concentration of KMV", "setting": "[1]", "result": "no impact"}, {"measurement": "plasma concentration of BCAA", "setting": "[2]", "result": "no effect"}, {"measurement": "plasma concentration of EAA", "setting": "[2]", "result": "no effect"}, {"measurement": "plasma concentration of NEAA", "setting": "[2]", "result": "no effect"}, {"measurement": "plasma concentration of leucine", "setting": "[2]", "result": "no effect"}, {"measurement": "plasma glucose concentration", "setting": "[3]; infusion of 20 μmol·kg^−1·hour^−1 HMB for one hour", "result": "modestly, but significantly (P<0.5), increased"}, {"measurement": "plasma glucose concentration", "setting": "[3]; infusion of 400 μmol·kg^−1·hour^−1 HMB for one hour", "result": "modestly, but significantly (P<0.5), increased"}]}
